# From the supplement of paper PMC8728848
# The list shows a part of the results.
# What was measured:
# Assay in all cases: glycan array binding signal (z-score within array); higher = stronger binding
# Details in all cases: glycan notation: IUPAC condensed, linker removed; mutation: Q318A
# Gal(a1-3)Gal = target: Gal(a1-3)Gal
# How it was run: (§1)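 The Consortium for Functional Glycomics database supplied 3228 glycan arrays, of which those lacking an available protein sequence were dropped. The binding signal, a within-array Z-score, was averaged across arrays of the same protein sequence and across linkers. Negative scores can be read as non-binding.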
# Gal(a1-3)Gal(b1-3)GlcNAc = target: Gal(a1-3)Gal(b1-3)GlcNAc
# How it was run: as §1
# [1] = target: Gal(a1-3)Gal(b1-3)GlcNAc(b1-2)Man
# How it was run: as §1
# [2] = target: Gal(a1-3)Gal(b1-3)GlcNAc(b1-2)Man(a1-3)[Gal(a1-3)Gal(b1-3)GlcNAc(b1-2)Man(a1-6)]Man(b1-4)GlcNAc(b1-4)GlcNAc
# How it was run: as §1
# [3] = target: Gal(a1-3)Gal(b1-3)GlcNAc(b1-3)GalNAc
# How it was run: as §1
# [4] = target: Gal(a1-3)Gal(b1-3)GlcNAc(b1-6)GalNAc
# How it was run: as §1
# [5] = target: Gal(a1-3)Gal(b1-3)[Fuc(a1-4)]GlcNAc(b1-2)Man(a1-3)[Gal(a1-3)Gal(b1-3)[Fuc(a1-4)]GlcNAc(b1-2)Man(a1-6)]Man(b1-4)GlcNAc(b1-4)GlcNAc
# How it was run: as §1
# Gal(a1-3)Gal(b1-4)Glc = target: Gal(a1-3)Gal(b1-4)Glc
# How it was run: as §1
# Gal(a1-3)Gal(b1-4)GlcNAc = target: Gal(a1-3)Gal(b1-4)GlcNAc
# How it was run: as §1
# [6] = target: Gal(a1-3)Gal(b1-4)GlcNAc(b1-2)Man
# How it was run: as §1
# [7] = target: Gal(a1-3)Gal(b1-4)GlcNAc(b1-2)Man(a1-3)[Gal(a1-3)Gal(b1-4)GlcNAc(b1-2)Man(a1-6)]Man(b1-4)GlcNAc(b1-4)GlcNAc
# How it was run: as §1
# [8] = target: Gal(a1-3)Gal(b1-4)GlcNAc(b1-3)GalNAc
# How it was run: as §1
# [9] = target: Gal(a1-3)Gal(b1-4)GlcNAc(b1-6)GalNAc
# How it was run: as §1
# [10] = target: Gal(a1-3)Gal(b1-4)[Fuc(a1-3)]GlcNAc
# How it was run: as §1
# [11] = target: Gal(a1-3)Gal(b1-4)[Fuc(a1-3)]GlcNAc(b1-2)Man(a1-3)[Gal(a1-3)Gal(b1-4)[Fuc(a1-3)]GlcNAc(b1-2)Man(a1-6)]Man(b1-4)GlcNAc(b1-4)GlcNAc
# How it was run: as §1
# Gal(a1-3)GalNAc = target: Gal(a1-3)GalNAc
# How it was run: as §1
# [12] = target: Gal(a1-3)[Gal(a1-4)]Gal(b1-4)GlcNAc
# How it was run: as §1
# [13] = target: Gal(a1-4)Gal(b1-3)GlcNAc(b1-2)Man(a1-3)[Gal(a1-4)Gal(b1-3)GlcNAc(b1-2)Man(a1-6)]Man(b1-4)GlcNAc(b1-4)GlcNAc
# How it was run: as §1
# Gal(a1-4)Gal(b1-4)Glc = target: Gal(a1-4)Gal(b1-4)Glc
# How it was run: as §1
# Gal(a1-4)Gal(b1-4)GlcNAc = target: Gal(a1-4)Gal(b1-4)GlcNAc
# How it was run: as §1
# [14] = target: Gal(a1-4)Gal(b1-4)GlcNAc(b1-2)Man(a1-3)[Gal(a1-4)Gal(b1-4)GlcNAc(b1-2)Man(a1-6)]Man(b1-4)GlcNAc(b1-4)GlcNAc
# How it was run: as §1
# [15] = target: Gal(a1-4)Gal(b1-4)GlcNAc(b1-3)Gal(b1-4)Glc
# How it was run: as §1
# Gal(a1-4)GlcNAc = target: Gal(a1-4)GlcNAc
# How it was run: as §1
# Gal(a1-6)Glc = target: Gal(a1-6)Glc
# How it was run: as §1
# Gal(b1-2)Gal = target: Gal(b1-2)Gal
# How it was run: as §1
# Gal(b1-3)Gal = target: Gal(b1-3)Gal
# How it was run: as §1
# Gal(b1-3)Gal(b1-4)GlcNAc = target: Gal(b1-3)Gal(b1-4)GlcNAc
# How it was run: as §1
# Gal(b1-3)GalNAc = target: Gal(b1-3)GalNAc
# How it was run: as §1
# [16] = target: Gal(b1-3)GalNAc(a1-3)[Fuc(a1-2)]Gal(b1-4)Glc
# How it was run: as §1
# [17] = target: Gal(b1-3)GalNAc(a1-3)[Fuc(a1-2)]Gal(b1-4)GlcNAc
# How it was run: as §1
# Gal(b1-3)GalNAc(b1-3)Gal = target: Gal(b1-3)GalNAc(b1-3)Gal
# How it was run: as §1
# [18] = target: Gal(b1-3)GalNAc(b1-3)Gal(a1-4)Gal(b1-4)Glc
# How it was run: as §1
# [19] = target: Gal(b1-3)GalNAc(b1-4)Gal(b1-4)Glc
# How it was run: as §1
# [20] = target: Gal(b1-3)GalNAc(b1-4)[Neu5Ac(a2-3)]Gal(b1-4)Glc
# How it was run: as §1
# Gal(b1-3)GlcNAc = target: Gal(b1-3)GlcNAc
# How it was run: as §1
# [21] = target: Gal(b1-3)GlcNAc(a1-3)Gal(b1-4)GlcNAc
# How it was run: as §1
# [22] = target: Gal(b1-3)GlcNAc(a1-6)Gal(b1-4)GlcNAc
# How it was run: as §1
# Gal(b1-3)GlcNAc(b1-2)Man = target: Gal(b1-3)GlcNAc(b1-2)Man
# How it was run: as §1
binder,measurement,setting,value
"SUN4 (Saccharomyces cerevisiae), P53616 (protein) MGSSHHHHHHSSGLVPRGSHNGSIYGDLADFSGPYEKFEDGTIPCGQFPSGQGVIPISWLDEGGWSGVENTDTSTGGSCKEGSYCSYACQPGMSKTQWPSDQPSDGRSIGGLLCKDGYLYRSNTDTDYLCEWGVDAAYVVSELSNDVAICRTDYPGTENMVIPTYVQAGDSLPLTVVDQDTYYTWQGLKTSAAYYVNNAGISVEDACVWGSSSSGVGNWAPLNFGAGSSDGVAYLSLIPNPNNGNALNFNVKIVAADDSSTVNGECIYENGSFSGGSDGCTVSVTAGKAKFVLYN",glycan array binding signal (z-score),Gal(a1-3)Gal,-0.296
same,glycan array binding signal (z-score),Gal(a1-3)Gal(b1-3)GlcNAc,-0.468
same,glycan array binding signal (z-score),[1],0.07
same,glycan array binding signal (z-score),[2],0.417
same,glycan array binding signal (z-score),[3],0.494
same,glycan array binding signal (z-score),[4],-0.83
same,glycan array binding signal (z-score),[5],1.29
same,glycan array binding signal (z-score),Gal(a1-3)Gal(b1-4)Glc,-0.282
same,glycan array binding signal (z-score),Gal(a1-3)Gal(b1-4)GlcNAc,-0.246
same,glycan array binding signal (z-score),[6],-0.083
same,glycan array binding signal (z-score),[7],-0.171
same,glycan array binding signal (z-score),[8],0.557
same,glycan array binding signal (z-score),[9],-0.681
same,glycan array binding signal (z-score),[10],-1.45
same,glycan array binding signal (z-score),[11],0.852
same,glycan array binding signal (z-score),Gal(a1-3)GalNAc,-0.633
same,glycan array binding signal (z-score),[12],-0.469
same,glycan array binding signal (z-score),[13],0.285
same,glycan array binding signal (z-score),Gal(a1-4)Gal(b1-4)Glc,2.25
same,glycan array binding signal (z-score),Gal(a1-4)Gal(b1-4)GlcNAc,-0.275
same,glycan array binding signal (z-score),[14],-0.166
same,glycan array binding signal (z-score),[15],-0.135
same,glycan array binding signal (z-score),Gal(a1-4)GlcNAc,0.275
same,glycan array binding signal (z-score),Gal(a1-6)Glc,-1.02
same,glycan array binding signal (z-score),Gal(b1-2)Gal,-0.035
same,glycan array binding signal (z-score),Gal(b1-3)Gal,-0.251
same,glycan array binding signal (z-score),Gal(b1-3)Gal(b1-4)GlcNAc,-1.08
same,glycan array binding signal (z-score),Gal(b1-3)GalNAc,0.173
same,glycan array binding signal (z-score),[16],-0.359
same,glycan array binding signal (z-score),[17],-0.683
same,glycan array binding signal (z-score),Gal(b1-3)GalNAc(b1-3)Gal,-0.741
same,glycan array binding signal (z-score),[18],-0.26
same,glycan array binding signal (z-score),[19],-0.46
same,glycan array binding signal (z-score),[20],-0.545
same,glycan array binding signal (z-score),Gal(b1-3)GlcNAc,0.3
same,glycan array binding signal (z-score),[21],1.04
same,glycan array binding signal (z-score),[22],-0.902
same,glycan array binding signal (z-score),Gal(b1-3)GlcNAc(b1-2)Man,-0.283

# Reprinted at random: three records from the list.
binder,measurement,setting,value
"SUN4 (Saccharomyces cerevisiae), P53616 (protein) MGSSHHHHHHSSGLVPRGSHNGSIYGDLADFSGPYEKFEDGTIPCGQFPSGQGVIPISWLDEGGWSGVENTDTSTGGSCKEGSYCSYACQPGMSKTQWPSDQPSDGRSIGGLLCKDGYLYRSNTDTDYLCEWGVDAAYVVSELSNDVAICRTDYPGTENMVIPTYVQAGDSLPLTVVDQDTYYTWQGLKTSAAYYVNNAGISVEDACVWGSSSSGVGNWAPLNFGAGSSDGVAYLSLIPNPNNGNALNFNVKIVAADDSSTVNGECIYENGSFSGGSDGCTVSVTAGKAKFVLYN",glycan array binding signal (z-score),Gal(a1-4)Gal(b1-4)GlcNAc,-0.275
same,glycan array binding signal (z-score),Gal(a1-4)GlcNAc,0.275
same,glycan array binding signal (z-score),[9],-0.681
